Patent US11629105B2, “Plant treatment composition” (Croda International Plc, priority 2016, dated 2023)
Some results were stated once for a whole list of compounds, not compound by compound.

Details: some solubility, not enough to achieve the stated concentration
Method: The solubility of other substituted ureas and substituted thioureas was tested in this solvent.

O=C(NC1CCCCC1)NC1CCCCC1 [N,N′-dicyclohexyl urea]
solubility in AGNIQUE AMD10: < 2 % w/w
